These are yes or no findings as the source states them, for the method shown. Binding seen in cells or lysates may run through a third protein. Some entries that bind do so weakly or less than the wild type.
Biological target: FLAG-tagged FAM114A1 recombinant protein (UniProt Q9D281)
Assay: co-IP

Protein sequences, listed by entry. Tags and fused reporters are not part of them.
UniProt Q9D281: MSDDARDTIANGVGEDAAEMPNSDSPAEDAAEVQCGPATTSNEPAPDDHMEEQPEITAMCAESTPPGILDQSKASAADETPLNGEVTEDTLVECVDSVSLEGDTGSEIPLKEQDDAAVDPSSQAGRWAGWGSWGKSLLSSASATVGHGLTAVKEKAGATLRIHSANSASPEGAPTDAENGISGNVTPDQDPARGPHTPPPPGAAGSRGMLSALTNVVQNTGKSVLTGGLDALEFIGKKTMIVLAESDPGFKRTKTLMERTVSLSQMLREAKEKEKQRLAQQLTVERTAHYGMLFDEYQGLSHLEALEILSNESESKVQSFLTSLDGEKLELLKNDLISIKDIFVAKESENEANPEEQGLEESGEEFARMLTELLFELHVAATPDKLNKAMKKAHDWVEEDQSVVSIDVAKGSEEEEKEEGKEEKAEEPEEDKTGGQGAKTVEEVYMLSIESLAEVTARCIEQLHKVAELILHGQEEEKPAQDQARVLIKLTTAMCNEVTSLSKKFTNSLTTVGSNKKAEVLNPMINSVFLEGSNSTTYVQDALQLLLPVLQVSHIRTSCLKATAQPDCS

B1: AGTRAP in NIH/3T3 fibroblast cells (protein, UniProt Q9WVK0 1-161)
chain: MELPAVNLKVILLVHWLLTTWGCLVFSSSYAWGNFTILALGVWAVAQRDSIDAIGMFLGGLVATIFLDIIYISIFYSSVATGDTGRFGAGMAILSLLLKPFSCCLVYHMHRERGGELPLRPDFFGPSQEHSAYQTIDSSSDAAADPFASLENKGQAVPRGY
In the case of B1, the binding is reported as “binds”.
